Literature values in patent publication US20180318303A1, “METHODS FOR TREATING MYELOPROLIFERATIVE DISORDERS” (Promedior, Inc., priority 2015, published 2018).
At least one structure is not confirmed: it was looked up by name or label, or the drawing left a doubt.

Settings: subjects with intermediate or high-risk myelofibrosis

SMILES: N#CC[C@H](C1CCCC1)n1cc(-c2ncnc3[nH]ccc23)cn1 [ruxolitinib]
- constitutional symptoms: improvement in constitutional symptoms
- effect on bone marrow fibrosis or on allele burden: does not appear to have an effect
- spleen volume: reduction in spleen volume
